Data as given in article doi:10.1101/2023.06.23.546279 (bioRxiv, 2023).
Results are given in words; binding and its absence hold for the method and conditions named. Binding seen in cells or lysates may run through a third protein. These calls come from enrichment with a bait or labelling near it, and not all partners need be listed. Tags and fused reporters may be left off the sequences shown.

T1: Hpr1 with a C-terminal FLAG-TEV-2xProtein-A (FTpA) tag (S. cerevisiae) (UniProt P17629)
T1 sequence: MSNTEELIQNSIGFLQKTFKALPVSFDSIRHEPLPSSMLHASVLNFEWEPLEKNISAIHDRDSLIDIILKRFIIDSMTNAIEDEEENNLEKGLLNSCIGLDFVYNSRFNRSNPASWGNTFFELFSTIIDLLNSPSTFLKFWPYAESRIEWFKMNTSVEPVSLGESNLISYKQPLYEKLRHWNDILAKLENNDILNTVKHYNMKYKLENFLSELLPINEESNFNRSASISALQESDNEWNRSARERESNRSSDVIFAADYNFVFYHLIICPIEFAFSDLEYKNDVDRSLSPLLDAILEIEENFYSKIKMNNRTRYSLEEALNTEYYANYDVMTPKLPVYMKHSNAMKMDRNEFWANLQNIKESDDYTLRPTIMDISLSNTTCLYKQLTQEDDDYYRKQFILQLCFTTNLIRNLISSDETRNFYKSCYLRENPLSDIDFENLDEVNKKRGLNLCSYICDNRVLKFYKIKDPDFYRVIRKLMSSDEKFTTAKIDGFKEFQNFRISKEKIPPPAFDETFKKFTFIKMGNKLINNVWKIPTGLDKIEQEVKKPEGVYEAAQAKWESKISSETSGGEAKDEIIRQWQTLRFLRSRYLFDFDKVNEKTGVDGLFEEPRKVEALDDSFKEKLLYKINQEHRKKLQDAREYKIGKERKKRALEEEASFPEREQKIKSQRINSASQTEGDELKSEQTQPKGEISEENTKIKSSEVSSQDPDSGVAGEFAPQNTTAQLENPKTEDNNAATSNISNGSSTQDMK

B1: Thp2 (natural protein)
chain: MTKEEGRTYFESLCEEEQSLQESQTHLLNILDILSVLADPRSSDDLLTESLKKLPDLHRELINSSIRLRYDKYQTREAQLLEDTKTGRDVAAGVQNPKSISEYYSTFEHLNRDTLRYINLLKRLSVDLAKQVEVSDPSVTVYEMDKWVPSEKLQGILEQYCAPDTDIRGVDAQIKNYLDQIKMARAKFGLENKYSLKERLSTLTKELNHWRKEWDDIEMLMFGDDAHSMKKMIQKIDSLKSEINAPSESYPVDKEGDIVLE
B2: Tex1 (protein, UniProt P53851 1-422)
chain: MSTIGAVDILNQKTITSEVAASVTSKYLQSTFSKGNTSHIEDKRFIHVSSRSHSRFTSTPITPNEILSLKFHVSGSSMAYSRMDGSLTVWFIKDASFDKSVEVYIPDCCGSDKLATDLSWNPTSLNQIAVVSNSSEISLLLINEKSLTASKLRTLSLGSKTKVNTCLYDPLGNWLLAATKSEKIYLFDVKKDHSSVCSLNISDISQEDNDVVYSLAWSNGGSHIFIGFKSGYLAILKAKHGILEVCTKIKAHTGPITEIKMDPWGRNFITGSIDGNCYVWNMKSLCCELIINDLNSAVTTLDVCHLGKILGICTEDEMVYFYDLNSGNLLHSKSLANYKTDPVLKFYPDKSWYIMSGKNDTLSNHFVKNEKNLITYWKDMFDNTMIEKRRKNNGGGNNHNKRTSKNTDRIGKDRPSRFNSKK
B3: Sub2 (enzyme, UniProt Q07478 1-446)
chain: MSHEGEEDLLEYSDNEQEIQIDASKAAEAGETGAATSATEGDNNNNTAAGDKKGSYVGIHSTGFKDFLLKPELSRAIIDCGFEHPSEVQQHTIPQSIHGTDVLCQAKSGLGKTAVFVLSTLQQLDPVPGEVAVVVICNARELAYQIRNEYLRFSKYMPDVKTAVFYGGTPISKDAELLKNKDTAPHIVVATPGRLKALVREKYIDLSHVKNFVIDECDKVLEELDMRRDVQEIFRATPRDKQVMMFSATLSQEIRPICRRFLQNPLEIFVDDEAKLTLHGLQQYYIKLEEREKNRKLAQLLDDLEFNQVIIFVKSTTRANELTKLLNASNFPAITVHGHMKQEERIARYKAFKDFEKRICVSTDVFGRGIDIERINLAINYDLTNEADQYLHRVGRAGRFGTKGLAISFVSSKEDEEVLAKIQERFDVKIAEFPEEGIDPSTYLNN
B4: Gbp2 (protein, UniProt P25555 1-427)
chain: MERELGMYGNDRSRSRSPVRRRLSDDRDRYDDYNDSSSNNGNGSRRQRRDRGSRFNDRYDQSYGGSRYHDDRNWPPRRGGRGRGGSRSFRGGRGGGRGRTLGPIVERDLERQFDATKRNFENSIFVRNLTFDCTPEDLKELFGTVGEVVEADIITSKGHHRGMGTVEFTKNESVQDAISKFDGALFMDRKLMVRQDNPPPEAAKEFSKKATREEIDNGFEVFIINLPYSMNWQSLKDMFKECGHVLRADVELDFNGFSRGFGSVIYPTEDEMIRAIDTFNGMEVEGRVLEVREGRFNKRKNNDRYNQRREDLEDTRGTEPGLAQDAAVHIDETAAKFTEGVNPGGDRNCFIYCSNLPFSTARSDLFDLFGPIGKINNAELKPQENGQPTGVAVVEYENLVDADFCIQKLNNYNYGGCSLQISYARRD
B5: Hrb1 (protein, UniProt P38922 1-454)
chain: MSDQERGSENNNRSRSRSRSPVRRRMSDDHGYERDNHLSRRSGNYNGRRKFADTYRGSRDRGEYRGGRERSDYRERERFNNRDNPRSRDRYDDRRRGRDVTGRYGNRRDDYPRSFRSRHNTRDDSRRGGFGSSGARGDYGPLLARELDSTYEEKVNRNYSNSIFVGNLTYDSTPEDLTEFFSQIGKVVRADIITSRGHHRGMGTVEFTNSDDVDRAIRQYDGAFFMDRKIFVRQDNPPPSNNIKERKALDRGELRHNRKTHEVIVKNLPASVNWQALKDIFKECGNVAHADVELDGDGVSTGSGTVSFYDIKDLHRAIEKYNGYSIEGNVLDVKSKESVHNHSDGDDVDIPMDDSPVNEEARKFTENVVGGGERNRLIYCSNLPFSTAKSDLYDLFETIGKVNNAELRYDSKGAPTGIAVVEYDNVDDADVCIERLNNYNYGGCDLDISYAKRL

Target: T1, Hpr1 with a C-terminal FLAG-TEV-2xProtein-A (FTpA) tag (S. cerevisiae)
Assay: affinity purification with mass spectrometry

Binder	binding
B1	binds
B2	binds
B3	binds
B4	binds
B5	binds
